# System: LPS induced murine endotoxemia
# Test: Spleen gene expression profile in LPS-induced murine endotoxemia (NIA murine 17K array)
# Assay type: in vivo, mice
# [1] = LPS 4 h vs LPS 4 h+Ghrelin, spleen
# [2] = LPS 24 h vs LPS24 h+Ghrelin, spleen
substance,measurement,setting,value
ghrelin,anti-inflammatory target genes down-regulated,[1],"camodulin1, thioredoxin reductase, glutamate-cysteine ligase, carbonic anhydrase 2, squalene epoxidase, GAB1, and Trcp"
same,anti-inflammatory target genes upregulated,[1],"IGF-1, estrogen receptor 1 (alpha), and TIMP4"
same,downregulated ESTs,[1],95
same,downregulated known genes,[1],156
same,upregulated ESTs,[1],76
same,upregulated known genes,[1],72
same,anti-inflammatory target genes detected among downregulated genes,[2],"leukotriene A4 hydrolase, PECAM, LPS-induced TN factor, TANK, and Star"
same,anti-inflammatory target genes detected among upregulated genes,[2],"Tom1 (target of Myb 1), thioredoxin reductase, glutamate-cysteine ligase (catalytic subunit) and glucocorticoid-induced gene 1"
same,downregulated ESTs,[2],187
same,downregulated known genes,[2],168
same,upregulated ESTs,[2],118
same,upregulated known genes,[2],143
same,anti-inflammatory target genes downregulated,"Sham vs Ghrelin, spleen","lipoprotein lipase, fatty acid synthase, S-adenosyl homocysteine hydrolase, peripheral benzodiazepine receptor, TANK, serum glucocorticoid dinase (SGK), and lysophospholipase 1"
same,anti-inflammatory target genes upregulated,"Sham vs Ghrelin, spleen",PACAP receptor and CD22 were both upregulated
same,downregulated ESTs,"Sham vs Ghrelin, spleen",94
same,downregulated known genes,"Sham vs Ghrelin, spleen",134
same,upregulated ESTs,"Sham vs Ghrelin, spleen",51
same,upregulated known genes,"Sham vs Ghrelin, spleen, ghrelin 0.5 mg/kg i.p., 1.5-fold mean ratio change",71
same,NFkB regulatory genes regulated by ghrelin,"endotoxemia model, overall","TRCP, TOM1, AP2, GAB1 and TANK"
